A short description of the series: in vivo. The note with it: Sprague-Dawley, rat.

Structures are written as SMILES.

The Vd is the apparent volume that relates the amount in the body to the concentration in plasma or blood. A high value points to extensive tissue distribution.

In turn, `N#Cc1cc(-c2ccc(Cl)cc2)c(-c2ccc(Cl)cc2Cl)nc1OCc1ccc(F)c(F)c1` had a Vd of 0.77 L/kg.

Source of the values: ChEMBL document CHEMBL1139131, “Lead optimization of 5,6-diarylpyridines as CB1 receptor inverse agonists” (Bioorg Med Chem Lett, 2007).
